From the supplement of paper PMC12819154, “High-throughput peptide-centric local stability assay extends protein–ligand identification to membrane proteins, tissues and bacteria” (Nature Structural & Molecular Biology, 2025) come the findings set out here.

By UniProt entry, the sequences of proteins in these tests, tags left out. Where a name states a change or a piece, a line headed by the entry shows the natural chain unless it says otherwise.
UniProt Q9CXJ1: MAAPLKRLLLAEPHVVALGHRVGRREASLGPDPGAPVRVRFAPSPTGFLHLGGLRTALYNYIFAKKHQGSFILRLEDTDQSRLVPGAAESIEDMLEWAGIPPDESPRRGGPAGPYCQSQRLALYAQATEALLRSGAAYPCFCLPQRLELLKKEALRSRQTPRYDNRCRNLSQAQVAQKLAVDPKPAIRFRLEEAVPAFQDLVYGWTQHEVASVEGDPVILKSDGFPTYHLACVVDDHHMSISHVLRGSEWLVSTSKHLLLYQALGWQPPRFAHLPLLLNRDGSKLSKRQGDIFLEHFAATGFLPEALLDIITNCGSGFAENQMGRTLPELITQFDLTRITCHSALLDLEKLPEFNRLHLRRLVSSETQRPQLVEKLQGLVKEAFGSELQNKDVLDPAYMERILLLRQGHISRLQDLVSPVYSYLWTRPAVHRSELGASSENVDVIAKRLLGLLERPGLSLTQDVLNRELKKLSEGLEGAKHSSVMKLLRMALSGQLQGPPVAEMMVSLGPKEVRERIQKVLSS
UniProt Q9CXE2, whole entry: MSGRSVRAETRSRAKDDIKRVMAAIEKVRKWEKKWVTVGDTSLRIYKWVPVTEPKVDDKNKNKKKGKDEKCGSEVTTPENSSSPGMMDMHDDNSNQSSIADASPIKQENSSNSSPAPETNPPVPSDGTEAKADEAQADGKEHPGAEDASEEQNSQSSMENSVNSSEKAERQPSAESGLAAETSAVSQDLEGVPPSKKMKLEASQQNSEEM
UniProt Q9CXF0: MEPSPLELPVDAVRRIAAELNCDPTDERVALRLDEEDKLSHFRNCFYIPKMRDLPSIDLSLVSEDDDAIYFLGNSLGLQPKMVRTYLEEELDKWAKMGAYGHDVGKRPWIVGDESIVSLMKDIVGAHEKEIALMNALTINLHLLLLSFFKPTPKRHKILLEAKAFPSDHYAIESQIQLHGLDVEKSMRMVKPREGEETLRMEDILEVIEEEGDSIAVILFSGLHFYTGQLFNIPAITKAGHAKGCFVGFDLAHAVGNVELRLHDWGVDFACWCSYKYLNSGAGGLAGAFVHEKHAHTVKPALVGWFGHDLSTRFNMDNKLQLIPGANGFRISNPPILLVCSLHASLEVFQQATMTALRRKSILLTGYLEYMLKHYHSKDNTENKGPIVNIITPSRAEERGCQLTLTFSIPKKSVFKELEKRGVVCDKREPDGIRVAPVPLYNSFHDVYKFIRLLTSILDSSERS
UniProt Q9CZ09: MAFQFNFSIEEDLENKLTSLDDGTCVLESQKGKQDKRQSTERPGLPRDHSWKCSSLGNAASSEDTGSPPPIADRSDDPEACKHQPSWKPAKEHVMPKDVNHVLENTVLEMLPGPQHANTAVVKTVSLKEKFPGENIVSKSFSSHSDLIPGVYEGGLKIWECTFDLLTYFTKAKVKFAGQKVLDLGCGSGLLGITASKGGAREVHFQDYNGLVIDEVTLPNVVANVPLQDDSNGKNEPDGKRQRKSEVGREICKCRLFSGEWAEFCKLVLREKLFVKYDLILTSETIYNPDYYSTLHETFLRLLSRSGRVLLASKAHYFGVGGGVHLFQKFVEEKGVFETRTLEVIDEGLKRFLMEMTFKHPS
UniProt Q9CY58: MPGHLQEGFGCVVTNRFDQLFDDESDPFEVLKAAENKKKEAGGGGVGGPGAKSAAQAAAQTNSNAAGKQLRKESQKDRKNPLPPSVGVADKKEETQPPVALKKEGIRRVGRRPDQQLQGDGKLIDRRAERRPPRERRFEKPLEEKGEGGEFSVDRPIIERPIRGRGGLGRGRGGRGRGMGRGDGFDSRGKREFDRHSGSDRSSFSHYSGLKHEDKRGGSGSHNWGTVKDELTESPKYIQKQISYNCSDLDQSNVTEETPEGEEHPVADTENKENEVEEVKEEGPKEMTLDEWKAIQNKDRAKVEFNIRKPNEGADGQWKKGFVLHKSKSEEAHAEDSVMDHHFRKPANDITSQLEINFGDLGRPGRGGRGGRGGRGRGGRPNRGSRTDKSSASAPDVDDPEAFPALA
UniProt Q9CR68: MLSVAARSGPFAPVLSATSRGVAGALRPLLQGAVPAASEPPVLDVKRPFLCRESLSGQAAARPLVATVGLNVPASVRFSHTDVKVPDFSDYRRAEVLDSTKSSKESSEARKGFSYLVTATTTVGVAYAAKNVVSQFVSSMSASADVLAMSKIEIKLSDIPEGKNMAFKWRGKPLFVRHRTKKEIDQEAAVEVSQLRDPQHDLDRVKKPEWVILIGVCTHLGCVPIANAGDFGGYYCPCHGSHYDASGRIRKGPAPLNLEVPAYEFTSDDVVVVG
UniProt Q9CYF5, whole entry, looked up: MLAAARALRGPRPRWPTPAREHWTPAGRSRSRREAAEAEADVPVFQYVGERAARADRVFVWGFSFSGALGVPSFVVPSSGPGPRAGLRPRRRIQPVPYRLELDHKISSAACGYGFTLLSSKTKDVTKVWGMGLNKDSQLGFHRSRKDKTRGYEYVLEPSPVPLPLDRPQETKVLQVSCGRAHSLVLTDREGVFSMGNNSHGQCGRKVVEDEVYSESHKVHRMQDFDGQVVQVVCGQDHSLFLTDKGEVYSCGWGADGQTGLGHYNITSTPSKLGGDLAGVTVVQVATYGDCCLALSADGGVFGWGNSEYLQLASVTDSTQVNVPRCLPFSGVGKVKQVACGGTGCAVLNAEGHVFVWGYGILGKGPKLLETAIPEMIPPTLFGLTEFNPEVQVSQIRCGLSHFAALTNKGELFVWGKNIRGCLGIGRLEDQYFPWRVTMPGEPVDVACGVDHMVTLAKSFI
UniProt Q9D0B0, whole entry: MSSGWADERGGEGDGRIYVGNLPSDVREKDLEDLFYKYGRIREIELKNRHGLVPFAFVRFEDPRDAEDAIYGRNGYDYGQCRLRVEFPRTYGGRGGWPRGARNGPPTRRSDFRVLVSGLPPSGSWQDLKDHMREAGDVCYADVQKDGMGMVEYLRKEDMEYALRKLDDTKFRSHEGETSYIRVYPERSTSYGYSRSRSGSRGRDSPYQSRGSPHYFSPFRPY
UniProt Q9CWV6: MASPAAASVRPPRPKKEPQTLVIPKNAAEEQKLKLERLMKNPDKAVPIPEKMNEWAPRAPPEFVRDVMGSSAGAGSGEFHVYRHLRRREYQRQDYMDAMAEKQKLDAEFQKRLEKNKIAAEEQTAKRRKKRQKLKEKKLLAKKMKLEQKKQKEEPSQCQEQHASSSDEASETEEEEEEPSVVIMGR
UniProt Q9CZJ9: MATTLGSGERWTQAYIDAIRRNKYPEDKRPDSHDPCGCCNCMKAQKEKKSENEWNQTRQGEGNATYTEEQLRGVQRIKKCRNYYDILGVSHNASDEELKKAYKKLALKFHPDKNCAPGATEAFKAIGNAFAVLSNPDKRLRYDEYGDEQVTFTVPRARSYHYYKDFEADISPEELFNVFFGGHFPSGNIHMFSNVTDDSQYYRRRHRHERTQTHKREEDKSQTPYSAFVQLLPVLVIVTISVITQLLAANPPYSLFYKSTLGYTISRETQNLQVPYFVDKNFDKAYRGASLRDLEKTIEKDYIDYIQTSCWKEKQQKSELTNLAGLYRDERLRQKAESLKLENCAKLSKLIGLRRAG
UniProt Q9CY97: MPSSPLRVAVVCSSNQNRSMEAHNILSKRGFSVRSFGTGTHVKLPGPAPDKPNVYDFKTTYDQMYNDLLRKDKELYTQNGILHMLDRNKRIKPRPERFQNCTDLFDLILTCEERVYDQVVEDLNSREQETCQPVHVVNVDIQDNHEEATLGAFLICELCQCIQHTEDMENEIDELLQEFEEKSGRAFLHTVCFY
UniProt Q9CZV8: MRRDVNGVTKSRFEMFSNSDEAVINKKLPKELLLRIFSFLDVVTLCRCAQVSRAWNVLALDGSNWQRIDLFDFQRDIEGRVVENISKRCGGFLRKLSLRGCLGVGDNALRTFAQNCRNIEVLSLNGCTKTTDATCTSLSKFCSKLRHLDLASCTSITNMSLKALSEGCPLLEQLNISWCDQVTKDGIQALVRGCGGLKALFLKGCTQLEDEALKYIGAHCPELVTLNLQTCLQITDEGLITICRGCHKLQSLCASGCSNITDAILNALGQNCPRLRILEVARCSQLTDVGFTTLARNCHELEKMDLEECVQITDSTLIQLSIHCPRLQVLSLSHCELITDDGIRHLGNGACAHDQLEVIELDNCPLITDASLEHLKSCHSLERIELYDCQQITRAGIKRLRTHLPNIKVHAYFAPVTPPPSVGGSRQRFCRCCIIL

The other results are listed elsewhere or left out. Small differences around the control level are noise.

Compound in the assay: CN[C@@H]1C[C@H]2O[C@@](C)([C@@H]1OC)n1c3ccccc3c3c4c(c5c6ccccc6n2c5c31)C(=O)NC4 [staurosporine]
The experiment in a line: log2 fold change of tryptic peptide abundance, ligand vs vehicle (limited proteolysis) (log2 ratio); higher = more trypsin-susceptible (destabilized). The settings on record: ligand concentration: 20 uM; sample: mouse liver crude lysate; replicate design: treated separately.
On to “UniProt Q9CXJ1 (peptide sequence: LQDLVSPVYSYLWTRPAVHR, peptide start residue: 413)”, for which the log2 fold change came out at 0.259.

For “UniProt Q9CXE2 (peptide sequence: WVPVTEPK, peptide start residue: 48)”, the log2 fold change stood at 0.0848.

In the case of “UniProt Q9CXF0 (peptide sequence: LQLIPGANGFR, peptide start residue: 320)”, the log2 fold change was -0.194.

Consider “UniProt Q9CZ09 (peptide sequence: TLEVIDEGLKR, peptide start residue: 341)”, for which the log2 fold change worked out at 0.318.

In the case of “UniProt Q9CY58 (peptide sequence: SSFSHYSGLK, peptide start residue: 202)”, the log2 fold change was 0.091.

Turning to “UniProt Q9CR68 (peptide sequence: VPDFSDYR, peptide start residue: 85)”, the log2 fold change is -0.185.

Regarding “UniProt Q9CYF5 (peptide sequence: VLQVSCGR, peptide start residue: 173)”, the log2 fold change is -0.112.

On to “UniProt Q9D0B0 (peptide sequence: DGMGMVEYLR, peptide start residue: 146)”, for which the log2 fold change was determined as 0.289.

Take “UniProt Q9CWV6 (peptide sequence: IAAEEQTAKR, peptide start residue: 118)”: the log2 fold change was 0.272.

In the case of “UniProt Q9CZJ9 (peptide sequence: SENEWNQTR, peptide start residue: 50)”, the log2 fold change is -0.634.

In the case of “UniProt Q9CY97 (peptide sequence: SMEAHNILSK, peptide start residue: 19)”, the log2 fold change was found to be 0.236.

Consider “UniProt Q9CZV8 (peptide sequence: GCLGVGDNALR, peptide start residue: 100)”, for which the log2 fold change was -0.257.
